From paper PMC10733324
These are yes or no findings as the source states them, for the method shown. In cells and extracts the contact can be indirect. Some results given as binding are weak or reduced against the parent protein; the word gives no strength. Tags and fused reporters may be left off the sequences shown.

The chains behind the UniProt entries cited, without tags or fusion partners.
UniProt O75140: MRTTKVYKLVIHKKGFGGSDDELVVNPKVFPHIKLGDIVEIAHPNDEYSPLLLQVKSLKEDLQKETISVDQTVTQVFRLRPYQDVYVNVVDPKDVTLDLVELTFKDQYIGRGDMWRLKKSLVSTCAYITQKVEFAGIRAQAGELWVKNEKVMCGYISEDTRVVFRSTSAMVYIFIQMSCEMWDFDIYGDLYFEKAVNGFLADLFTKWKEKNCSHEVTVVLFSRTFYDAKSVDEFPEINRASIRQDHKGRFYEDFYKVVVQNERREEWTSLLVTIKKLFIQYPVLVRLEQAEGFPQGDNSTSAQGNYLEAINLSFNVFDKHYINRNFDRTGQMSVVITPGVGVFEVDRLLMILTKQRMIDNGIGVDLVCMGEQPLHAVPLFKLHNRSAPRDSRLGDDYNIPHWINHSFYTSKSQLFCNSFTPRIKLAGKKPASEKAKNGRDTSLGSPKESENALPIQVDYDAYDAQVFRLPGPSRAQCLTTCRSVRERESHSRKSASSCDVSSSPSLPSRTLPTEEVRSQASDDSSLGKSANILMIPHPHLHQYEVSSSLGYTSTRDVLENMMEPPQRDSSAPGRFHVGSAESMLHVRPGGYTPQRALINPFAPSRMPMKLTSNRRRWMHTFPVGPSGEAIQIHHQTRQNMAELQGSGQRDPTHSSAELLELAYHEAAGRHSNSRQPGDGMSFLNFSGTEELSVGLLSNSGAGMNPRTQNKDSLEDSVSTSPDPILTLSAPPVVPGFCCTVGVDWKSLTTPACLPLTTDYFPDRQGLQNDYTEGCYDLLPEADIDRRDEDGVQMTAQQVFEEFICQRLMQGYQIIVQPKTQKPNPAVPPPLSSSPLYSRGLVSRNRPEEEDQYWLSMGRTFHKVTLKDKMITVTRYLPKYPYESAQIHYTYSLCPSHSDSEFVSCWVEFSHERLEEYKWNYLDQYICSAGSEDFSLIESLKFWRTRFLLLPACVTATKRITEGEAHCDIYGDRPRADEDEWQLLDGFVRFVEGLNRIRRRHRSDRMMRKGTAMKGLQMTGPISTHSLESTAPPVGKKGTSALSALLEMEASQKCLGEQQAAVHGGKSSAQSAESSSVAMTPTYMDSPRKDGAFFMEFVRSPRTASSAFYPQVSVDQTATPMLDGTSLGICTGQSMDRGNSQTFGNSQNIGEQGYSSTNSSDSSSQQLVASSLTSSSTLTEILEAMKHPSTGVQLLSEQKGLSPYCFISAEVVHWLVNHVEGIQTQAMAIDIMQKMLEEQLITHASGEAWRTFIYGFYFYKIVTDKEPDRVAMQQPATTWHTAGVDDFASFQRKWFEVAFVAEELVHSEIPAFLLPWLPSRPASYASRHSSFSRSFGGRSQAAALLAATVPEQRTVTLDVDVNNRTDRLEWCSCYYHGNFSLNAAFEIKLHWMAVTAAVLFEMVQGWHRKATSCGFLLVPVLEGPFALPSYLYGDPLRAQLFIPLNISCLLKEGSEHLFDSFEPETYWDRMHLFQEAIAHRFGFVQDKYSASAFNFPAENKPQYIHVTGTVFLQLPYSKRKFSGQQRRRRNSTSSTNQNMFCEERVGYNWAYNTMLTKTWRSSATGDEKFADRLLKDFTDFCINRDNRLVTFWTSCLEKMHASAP
UniProt Q5T011: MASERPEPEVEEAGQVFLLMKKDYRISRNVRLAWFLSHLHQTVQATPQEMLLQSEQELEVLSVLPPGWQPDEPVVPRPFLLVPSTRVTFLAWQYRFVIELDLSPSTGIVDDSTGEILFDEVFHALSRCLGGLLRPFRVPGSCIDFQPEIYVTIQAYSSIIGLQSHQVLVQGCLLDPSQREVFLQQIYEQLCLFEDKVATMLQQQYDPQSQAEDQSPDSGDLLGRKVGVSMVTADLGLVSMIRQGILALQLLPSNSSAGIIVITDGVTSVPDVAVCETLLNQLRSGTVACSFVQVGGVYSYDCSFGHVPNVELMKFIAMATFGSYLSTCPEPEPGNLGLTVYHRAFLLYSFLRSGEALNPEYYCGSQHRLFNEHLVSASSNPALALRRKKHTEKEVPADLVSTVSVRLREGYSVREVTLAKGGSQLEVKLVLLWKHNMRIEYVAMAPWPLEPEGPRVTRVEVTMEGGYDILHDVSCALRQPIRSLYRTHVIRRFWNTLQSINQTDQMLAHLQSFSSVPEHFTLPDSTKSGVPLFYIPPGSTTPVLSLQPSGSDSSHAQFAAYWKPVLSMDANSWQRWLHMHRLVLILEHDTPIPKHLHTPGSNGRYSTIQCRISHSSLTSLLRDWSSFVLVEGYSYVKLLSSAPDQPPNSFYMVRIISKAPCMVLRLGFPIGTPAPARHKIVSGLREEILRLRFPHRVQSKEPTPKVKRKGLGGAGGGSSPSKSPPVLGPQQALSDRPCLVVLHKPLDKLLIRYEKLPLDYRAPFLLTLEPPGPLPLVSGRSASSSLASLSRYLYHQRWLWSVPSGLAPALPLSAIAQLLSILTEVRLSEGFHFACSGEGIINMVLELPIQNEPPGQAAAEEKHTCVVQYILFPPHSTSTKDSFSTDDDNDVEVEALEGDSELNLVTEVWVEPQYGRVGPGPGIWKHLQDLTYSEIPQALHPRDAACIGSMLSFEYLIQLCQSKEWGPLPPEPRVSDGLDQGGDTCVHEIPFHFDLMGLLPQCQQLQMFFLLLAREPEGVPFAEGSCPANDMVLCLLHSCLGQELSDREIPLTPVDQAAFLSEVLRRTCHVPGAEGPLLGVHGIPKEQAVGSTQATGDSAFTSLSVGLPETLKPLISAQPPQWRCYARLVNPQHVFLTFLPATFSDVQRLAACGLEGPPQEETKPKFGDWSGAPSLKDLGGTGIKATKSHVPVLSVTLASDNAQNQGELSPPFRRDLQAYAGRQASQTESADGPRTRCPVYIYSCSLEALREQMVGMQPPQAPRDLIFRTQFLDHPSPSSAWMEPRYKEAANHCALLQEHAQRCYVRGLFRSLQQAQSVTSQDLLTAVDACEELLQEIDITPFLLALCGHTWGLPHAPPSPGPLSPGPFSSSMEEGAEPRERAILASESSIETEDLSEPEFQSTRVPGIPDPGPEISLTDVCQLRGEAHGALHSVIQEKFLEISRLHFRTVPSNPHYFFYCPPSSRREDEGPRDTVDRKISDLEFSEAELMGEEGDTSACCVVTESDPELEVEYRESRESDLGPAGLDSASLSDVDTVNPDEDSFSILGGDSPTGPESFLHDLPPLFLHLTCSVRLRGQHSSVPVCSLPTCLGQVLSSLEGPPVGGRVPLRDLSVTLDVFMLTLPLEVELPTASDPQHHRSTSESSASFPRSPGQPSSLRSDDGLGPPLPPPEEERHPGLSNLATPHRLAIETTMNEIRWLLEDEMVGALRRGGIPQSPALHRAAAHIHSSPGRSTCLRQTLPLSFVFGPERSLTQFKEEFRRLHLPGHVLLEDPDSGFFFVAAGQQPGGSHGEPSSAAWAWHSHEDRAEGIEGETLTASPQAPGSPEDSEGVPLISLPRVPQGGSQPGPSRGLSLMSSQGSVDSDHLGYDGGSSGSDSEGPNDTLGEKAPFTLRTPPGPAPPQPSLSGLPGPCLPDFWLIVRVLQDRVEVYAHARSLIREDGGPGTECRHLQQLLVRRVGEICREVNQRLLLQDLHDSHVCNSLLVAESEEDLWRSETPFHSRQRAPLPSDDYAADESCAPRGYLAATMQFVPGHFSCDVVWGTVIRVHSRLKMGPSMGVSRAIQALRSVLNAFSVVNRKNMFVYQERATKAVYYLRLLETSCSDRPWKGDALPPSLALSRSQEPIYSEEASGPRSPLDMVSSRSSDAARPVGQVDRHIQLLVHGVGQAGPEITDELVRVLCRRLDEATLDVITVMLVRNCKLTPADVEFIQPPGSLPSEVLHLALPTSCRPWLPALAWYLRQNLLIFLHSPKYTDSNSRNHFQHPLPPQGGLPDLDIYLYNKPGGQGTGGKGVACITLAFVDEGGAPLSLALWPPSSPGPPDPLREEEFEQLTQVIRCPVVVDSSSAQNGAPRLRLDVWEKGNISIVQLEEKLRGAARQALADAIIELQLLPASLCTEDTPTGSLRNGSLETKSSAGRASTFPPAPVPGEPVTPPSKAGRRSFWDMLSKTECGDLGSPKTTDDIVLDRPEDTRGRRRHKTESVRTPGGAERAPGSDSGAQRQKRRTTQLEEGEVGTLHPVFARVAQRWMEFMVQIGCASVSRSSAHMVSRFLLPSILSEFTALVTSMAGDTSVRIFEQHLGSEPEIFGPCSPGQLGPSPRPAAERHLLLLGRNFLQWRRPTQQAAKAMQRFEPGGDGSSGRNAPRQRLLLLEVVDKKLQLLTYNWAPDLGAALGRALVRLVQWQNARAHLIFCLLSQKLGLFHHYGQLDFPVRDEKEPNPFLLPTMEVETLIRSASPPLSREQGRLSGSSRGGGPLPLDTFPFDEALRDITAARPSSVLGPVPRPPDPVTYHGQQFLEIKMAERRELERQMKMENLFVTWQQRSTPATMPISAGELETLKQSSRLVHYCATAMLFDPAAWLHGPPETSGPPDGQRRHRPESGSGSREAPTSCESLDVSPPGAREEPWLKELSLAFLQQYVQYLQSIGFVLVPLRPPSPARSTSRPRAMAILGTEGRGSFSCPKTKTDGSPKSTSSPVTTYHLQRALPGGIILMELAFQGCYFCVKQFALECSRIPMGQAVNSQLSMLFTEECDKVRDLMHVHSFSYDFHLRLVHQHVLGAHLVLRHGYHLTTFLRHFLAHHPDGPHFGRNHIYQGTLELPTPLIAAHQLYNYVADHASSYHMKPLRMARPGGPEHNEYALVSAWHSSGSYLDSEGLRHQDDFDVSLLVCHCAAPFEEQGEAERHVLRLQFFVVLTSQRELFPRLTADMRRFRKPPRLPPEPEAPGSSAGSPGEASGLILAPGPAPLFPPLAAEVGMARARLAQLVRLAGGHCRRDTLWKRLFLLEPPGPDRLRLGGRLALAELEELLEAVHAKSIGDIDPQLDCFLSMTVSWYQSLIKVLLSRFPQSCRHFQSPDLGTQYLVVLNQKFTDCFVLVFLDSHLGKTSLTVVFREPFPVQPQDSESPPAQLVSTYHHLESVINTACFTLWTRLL

T1: FLAG-tagged VWCE (von Willebrand factor C and EGF domains) (UniProt Q96DN2)
T1 sequence: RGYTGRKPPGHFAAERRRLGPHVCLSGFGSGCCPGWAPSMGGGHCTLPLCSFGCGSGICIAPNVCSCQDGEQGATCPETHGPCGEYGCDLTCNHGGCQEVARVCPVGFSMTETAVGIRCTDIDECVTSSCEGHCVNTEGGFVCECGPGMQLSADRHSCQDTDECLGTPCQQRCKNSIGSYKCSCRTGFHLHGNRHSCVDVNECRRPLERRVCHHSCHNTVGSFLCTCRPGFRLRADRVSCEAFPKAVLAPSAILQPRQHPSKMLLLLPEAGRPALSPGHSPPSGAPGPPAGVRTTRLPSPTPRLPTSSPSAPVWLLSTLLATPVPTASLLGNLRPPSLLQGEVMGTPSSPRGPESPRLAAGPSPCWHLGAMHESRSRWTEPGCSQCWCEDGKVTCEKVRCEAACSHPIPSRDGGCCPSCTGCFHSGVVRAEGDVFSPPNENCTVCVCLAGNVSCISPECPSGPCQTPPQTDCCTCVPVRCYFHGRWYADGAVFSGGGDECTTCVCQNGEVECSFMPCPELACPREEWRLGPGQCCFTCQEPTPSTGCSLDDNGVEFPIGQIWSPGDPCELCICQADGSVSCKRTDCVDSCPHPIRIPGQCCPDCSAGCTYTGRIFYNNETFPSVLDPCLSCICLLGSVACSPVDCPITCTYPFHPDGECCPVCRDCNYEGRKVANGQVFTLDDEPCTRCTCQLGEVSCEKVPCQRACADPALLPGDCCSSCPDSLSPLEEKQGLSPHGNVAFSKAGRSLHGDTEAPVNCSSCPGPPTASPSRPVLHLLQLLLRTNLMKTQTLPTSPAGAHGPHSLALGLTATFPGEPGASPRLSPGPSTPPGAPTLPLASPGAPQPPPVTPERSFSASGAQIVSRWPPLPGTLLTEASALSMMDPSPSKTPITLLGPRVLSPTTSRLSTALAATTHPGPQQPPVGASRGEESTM

T2: KPTN (no tag named) (UniProt Q9Y664)
T2 sequence: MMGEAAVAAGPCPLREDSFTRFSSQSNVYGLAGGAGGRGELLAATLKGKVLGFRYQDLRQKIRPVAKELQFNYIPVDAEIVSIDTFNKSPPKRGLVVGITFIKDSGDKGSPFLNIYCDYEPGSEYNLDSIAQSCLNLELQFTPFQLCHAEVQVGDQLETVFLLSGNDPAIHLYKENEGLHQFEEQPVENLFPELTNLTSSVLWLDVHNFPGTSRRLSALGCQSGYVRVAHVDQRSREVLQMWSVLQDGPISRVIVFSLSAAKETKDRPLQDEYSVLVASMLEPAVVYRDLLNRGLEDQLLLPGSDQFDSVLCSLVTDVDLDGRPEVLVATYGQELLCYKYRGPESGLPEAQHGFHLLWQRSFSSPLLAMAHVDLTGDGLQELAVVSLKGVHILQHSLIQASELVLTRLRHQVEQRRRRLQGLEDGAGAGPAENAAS


Tests used:
[1] = biological target: T1, FLAG-tagged VWCE (von Willebrand factor C and EGF domains); experiment: co-IP; cells transiently expressing the indicated cDNAs; amino acid starvation or restimulation before lysis; Triton X-100 lysis buffer, FLAG or HA agarose beads 2 h at 4 °C, washes with 150 mM NaCl; immunoblotting
[2] = biological target: T1, FLAG-tagged VWCE (von Willebrand factor C and EGF domains); experiment: co-IP; cells stably expressing FLAG-tagged VWCE transfected with HA-tagged cDNAs; amino acid starvation or restimulation before lysis; also in cells knocked out for KICSTOR components, GATOR1 or GATOR2; Triton X-100 lysis buffer, FLAG or HA agarose beads 2 h at 4 °C, washes with 150 mM NaCl …
[3] = biological target: HA-DEPDC5 (UniProt O75140); experiment: co-IP; cells transfected with siCtrl or siVWCE and the indicated cDNAs; Triton X-100 lysis buffer, FLAG or HA agarose beads 2 h at 4 °C, washes with 150 mM NaCl; immunoblotting
[4] = biological target: SZT2 (no tag named) (UniProt Q5T011); experiment: as above
[5] = biological target: T2, KPTN (no tag named); experiment: as above

| binding [2] | binding [3] | binding [4] | Binder | also measured |
| --- | --- | --- | --- | --- |
| binds |  |  | HA-tagged KPTN (protein, UniProt Q9Y664 1-436) MMGEAAVAAGPCPLREDSFTRFSSQSNVYGLAGGAGGRGELLAATLKGKVLGFRYQDLRQKIRPVAKELQFNYIPVDAEIVSIDTFNKSPPKRGLVVGITFIKDSGDKGSPFLNIYCDYEPGSEYNLDSIAQSCLNLELQFTPFQLCHAEVQVGDQLETVFLLSGNDPAIHLYKENEGLHQFEEQPVENLFPELTNLTSSVLWLDVHNFPGTSRRLSALGCQSGYVRVAHVDQRSREVLQMWSVLQDGPISRVIVFSLSAAKETKDRPLQDEYSVLVASMLEPAVVYRDLLNRGLEDQLLLPGSDQFDSVLCSLVTDVDLDGRPEVLVATYGQELLCYKYRGPESGLPEAQHGFHLLWQRSFSSPLLAMAHVDLTGDGLQELAVVSLKGVHILQHSLIQASELVLTRLRHQVEQRRRRLQGLEDGAGAGPAENAAS | binding [1]: binds |
|  | binds | binds | KPTN (no tag named) (protein, UniProt Q9Y664 1-436) MMGEAAVAAGPCPLREDSFTRFSSQSNVYGLAGGAGGRGELLAATLKGKVLGFRYQDLRQKIRPVAKELQFNYIPVDAEIVSIDTFNKSPPKRGLVVGITFIKDSGDKGSPFLNIYCDYEPGSEYNLDSIAQSCLNLELQFTPFQLCHAEVQVGDQLETVFLLSGNDPAIHLYKENEGLHQFEEQPVENLFPELTNLTSSVLWLDVHNFPGTSRRLSALGCQSGYVRVAHVDQRSREVLQMWSVLQDGPISRVIVFSLSAAKETKDRPLQDEYSVLVASMLEPAVVYRDLLNRGLEDQLLLPGSDQFDSVLCSLVTDVDLDGRPEVLVATYGQELLCYKYRGPESGLPEAQHGFHLLWQRSFSSPLLAMAHVDLTGDGLQELAVVSLKGVHILQHSLIQASELVLTRLRHQVEQRRRRLQGLEDGAGAGPAENAAS |  |
|  | binds |  | MIOS (protein, UniProt Q9NXC5 1-875) MSGTKPDILWAPHHVDRFVVCDSELSLYHVESTVNSELKAGSLRLSEDSAATLLSINSDTPYMKCVAWYLNYDPECLLAVGQANGRVVLTSLGQDHNSKFKDLIGKEFVPKHARQCNTLAWNPLDSNWLAAGLDKHRADFSVLIWDICSKYTPDIVPMEKVKLSAGETETTLLVTKPLYELGQNDACLSLCWLPRDQKLLLAGMHRNLAIFDLRNTSQKMFVNTKAVQGVTVDPYFHDRVASFYEGQVAIWDLRKFEKPVLTLTEQPKPLTKVAWCPTRTGLLATLTRDSNIIRLYDMQHTPTPIGDETEPTIIERSVQPCDNYIASFAWHPTSQNRMIVVTPNRTMSDFTVFERISLAWSPITSLMWACGRHLYECTEEENDNSLEKDIATKMRLRALSRYGLDTEQVWRNHILAGNEDPQLKSLWYTLHFMKQYTEDMDQKSPGNKGSLVYAGIKSIVKSSLGMVESSRHNWSGLDKQSDIQNLNEERILALQLCGWIKKGTDVDVGPFLNSLVQEGEWERAAAVALFNLDIRRAIQILNEGASSEKGDLNLNVVAMALSGYTDEKNSLWREMCSTLRLQLNNPYLCVMFAFLTSETGSYDGVLYENKVAVRDRVAFACKFLSDTQLNRYIEKLTNEMKEAGNLEGILLTGLTKDGVDLMESYVDRTGDVQTASYCMLQGSPLDVLKDERVQYWIENYRNLLDAWRFWHKRAEFDIHRSKLDPSSKPLAQVFVSCNFCGKSISYSCSAVPHQGRGFSQYGVSGSPTKSKVTSCPGCRKPLPRCALCLINMGTPVSSCPGGTKSDEKVDLSKDKKLAQFNNWFTWCHNCRHGGHAGHMLSWFRDHAECPVSACTCKCMQLDTTGNLVPAETVQP |  |
|  |  | binds | C12orf66 (no tag named) (protein, UniProt Q96MD2 1-445) MGESIPLAAPVPVEQAVLETFFSHLGIFSYDKAKDNVEKEREANKSAGGSWLSLLAALAHLAAAEKVYHSLTYLGQKLGGQSFFSRKDSIRTIYTSLHNELKKVVTGRGALGGTAPHVEELLSHLSEQLCFFVQARMEIADFYEKMYTLSTQKFINAEELVGLLDAIMKKYSSRFHHPILSPLESSFQLEVDVLCHLLKAQAQVSEWKFLPSLVNLHSAHTKLQTWGQIFEKQRETKKHLFGGQSQKAVQPPHLFLWLMKLKNMLLAKFSFYFHEALSRQTTASEMKTLTAKANPDFFGKISSFIRKYDAANVSLIFDNRGSESFQGHGYHHPHSYREAPKGVDQYPAVVSLPSDRPVMHWPNVIMIMTDRTSDLNSLEKVVHFYDDKVQSTYFLTRPEPHFTIVIIFESKKSERDSHFISFLNEVSLALKNPKVFASLKPGAKG |  |
| binds |  |  | HA-tagged ITFG2 (protein, UniProt Q969R8 1-447) MRSVSYVQRVALEFSGSLFPHAICLGDVDNDTLNELVVGDTSGKVSVYKNDDSRPWLTCSCQGMLTCVGVGDVCNKGKNLLVAVSAEGWFHLFDLTPAKVLDASGHHETLIGEEQRPVFKQHIPANTKVMLISDIDGDGCRELVVGYTDRVVRAFRWEELGEGPEHLTGQLVSLKKWMLEGQVDSLSVTLGPLGLPELMVSQPGCAYAILLCTWKKDTGSPPASEGPTDGSRETPAARDVVLHQTSGRIHNKNVSTHLIGNIKQGHGTESSGSGLFALCTLDGTLKLMEEMEEADKLLWSVQVDHQLFALEKLDVTGNGHEEVVACAWDGQTYIIDHNRTVVRFQVDENIRAFCAGLYACKEGRNSPCLVYVTFNQKIYVYWEVQLERMESTNLVKLLETKPEYHSLLQELGVDPDDLPVTRALLHQTLYHPDQPPQCAPSSLQDPT |  |
|  |  |  | ITFG2 (no tag named) (protein, UniProt Q969R8 1-447) MRSVSYVQRVALEFSGSLFPHAICLGDVDNDTLNELVVGDTSGKVSVYKNDDSRPWLTCSCQGMLTCVGVGDVCNKGKNLLVAVSAEGWFHLFDLTPAKVLDASGHHETLIGEEQRPVFKQHIPANTKVMLISDIDGDGCRELVVGYTDRVVRAFRWEELGEGPEHLTGQLVSLKKWMLEGQVDSLSVTLGPLGLPELMVSQPGCAYAILLCTWKKDTGSPPASEGPTDGSRETPAARDVVLHQTSGRIHNKNVSTHLIGNIKQGHGTESSGSGLFALCTLDGTLKLMEEMEEADKLLWSVQVDHQLFALEKLDVTGNGHEEVVACAWDGQTYIIDHNRTVVRFQVDENIRAFCAGLYACKEGRNSPCLVYVTFNQKIYVYWEVQLERMESTNLVKLLETKPEYHSLLQELGVDPDDLPVTRALLHQTLYHPDQPPQCAPSSLQDPT | binding [5]: binds |
